In paper PMC9820583 one finds binding data, which are given here for 2 molecules.

In experiment [1] the target is T1, cyclin-dependent kinase-like 5 (CDKL5), endogenous in mouse brain (mouse (endogenous in brain)) (UniProt Q3UTQ8).
T1 sequence: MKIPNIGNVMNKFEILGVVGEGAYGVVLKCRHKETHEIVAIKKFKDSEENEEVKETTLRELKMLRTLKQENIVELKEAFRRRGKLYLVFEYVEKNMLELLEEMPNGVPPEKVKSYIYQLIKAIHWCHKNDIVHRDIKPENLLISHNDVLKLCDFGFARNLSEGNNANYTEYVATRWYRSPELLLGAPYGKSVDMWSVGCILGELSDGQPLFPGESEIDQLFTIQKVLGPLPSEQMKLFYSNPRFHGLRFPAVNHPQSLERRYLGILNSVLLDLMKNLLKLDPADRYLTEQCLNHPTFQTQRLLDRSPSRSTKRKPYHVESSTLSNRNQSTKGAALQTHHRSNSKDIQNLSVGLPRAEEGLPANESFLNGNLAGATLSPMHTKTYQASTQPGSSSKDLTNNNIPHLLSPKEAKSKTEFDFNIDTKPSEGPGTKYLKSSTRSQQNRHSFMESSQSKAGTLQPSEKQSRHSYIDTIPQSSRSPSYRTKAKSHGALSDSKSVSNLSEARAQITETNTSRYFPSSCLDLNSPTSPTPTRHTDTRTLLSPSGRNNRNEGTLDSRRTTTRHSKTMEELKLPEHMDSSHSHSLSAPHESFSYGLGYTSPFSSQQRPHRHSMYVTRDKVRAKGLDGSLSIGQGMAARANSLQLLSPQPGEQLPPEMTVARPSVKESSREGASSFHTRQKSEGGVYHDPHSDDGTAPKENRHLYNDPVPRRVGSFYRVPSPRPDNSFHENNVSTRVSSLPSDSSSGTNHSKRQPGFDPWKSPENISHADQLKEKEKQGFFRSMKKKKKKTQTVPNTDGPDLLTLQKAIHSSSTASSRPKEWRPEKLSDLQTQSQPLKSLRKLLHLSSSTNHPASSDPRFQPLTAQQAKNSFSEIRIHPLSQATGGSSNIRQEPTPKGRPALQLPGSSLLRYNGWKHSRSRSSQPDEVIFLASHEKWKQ
The experiment in a line: co-IP; CDKL5 immunoprecipitated with 1 µg anti-CDKL5 from 1 mg mouse brain extract (PND20-30); lysis buffer 50 mM Tris-HCl pH 7.4, 150 mM NaCl, 1 mM EDTA, 1 mM EGTA, 1% Triton X-100; overnight at 4 °C; protein-G agarose; unrelated IgGs as control; western blotting. For orientation: Immunoblotting shows a protein as a band on a membrane.

The target in experiment [2] is T2, CDKL5, endogenous in HEK293T cells (human (endogenous in HEK293T)) (UniProt O76039).
T2 sequence: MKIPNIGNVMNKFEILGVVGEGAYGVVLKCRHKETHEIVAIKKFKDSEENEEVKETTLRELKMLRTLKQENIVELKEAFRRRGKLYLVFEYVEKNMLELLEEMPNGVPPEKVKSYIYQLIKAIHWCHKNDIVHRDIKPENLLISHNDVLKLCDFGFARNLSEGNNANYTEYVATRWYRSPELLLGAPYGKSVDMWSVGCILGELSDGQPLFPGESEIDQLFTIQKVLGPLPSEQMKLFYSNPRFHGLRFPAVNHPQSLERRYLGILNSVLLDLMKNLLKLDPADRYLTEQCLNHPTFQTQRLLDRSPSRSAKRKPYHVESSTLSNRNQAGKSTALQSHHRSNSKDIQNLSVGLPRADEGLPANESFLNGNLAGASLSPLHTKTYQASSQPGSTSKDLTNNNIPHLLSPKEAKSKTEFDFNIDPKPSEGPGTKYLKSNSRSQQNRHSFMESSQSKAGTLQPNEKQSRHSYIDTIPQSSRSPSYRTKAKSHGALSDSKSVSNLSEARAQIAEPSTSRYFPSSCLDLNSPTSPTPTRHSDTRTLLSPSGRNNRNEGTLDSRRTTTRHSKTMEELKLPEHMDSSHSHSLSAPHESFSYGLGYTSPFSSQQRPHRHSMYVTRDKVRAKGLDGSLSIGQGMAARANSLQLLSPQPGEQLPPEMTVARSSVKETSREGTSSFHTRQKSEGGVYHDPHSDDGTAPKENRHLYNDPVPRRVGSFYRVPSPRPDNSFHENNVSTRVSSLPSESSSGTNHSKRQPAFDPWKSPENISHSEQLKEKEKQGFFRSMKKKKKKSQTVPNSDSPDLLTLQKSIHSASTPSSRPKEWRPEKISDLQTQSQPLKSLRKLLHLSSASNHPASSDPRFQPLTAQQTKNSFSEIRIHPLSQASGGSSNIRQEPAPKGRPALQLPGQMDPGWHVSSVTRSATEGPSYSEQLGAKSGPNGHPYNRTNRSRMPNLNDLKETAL
The experiment in a line: co-IP; CDKL5 immunoprecipitated with 1 µg monoclonal anti-CDKL5 from 400 µg of HEK293T cells expressing Flag-CDKL5 and Myc-CB2; lysis buffer 50 mM Tris-HCl pH 7.4, 150 mM NaCl, 1 mM EDTA, 1 mM EGTA, 1% Triton X-100; overnight at 4 °C; protein-G agarose; western blotting with anti-CDKL5 and anti-CB.

Residue numbers refer to the chain shown, from its start. Results are given in words; binding and its absence hold for the method and conditions named. In cells and extracts the contact can be indirect. Some results given as binding are weak or reduced against the parent protein; the word gives no strength.

B1: collybistin, endogenous in mouse brain (protein, UniProt Q3UTH8 1-516)
chain: MYDLITGDSIVSAEAVWDHVTMANRELAFKAGDVIKVLDASNKDWWWGQIDDEEGWFPASFVRLWVNQEDGVEEGPSDVQNGHLDPNSDCLCLGRPLQNRDQMRANVINEIMSTERHYIKHLKDICEGYLKQCRKRRDMFSDEQLKVIFGNIEDIYRFQMGFVRDLEKQYNNDDPHLSEIGPCFLEHQDGFWIYSEYCNNHLDACMELSKLMKDSRYQHFFEACRLLQQMIDIAIDGFLLTPVQKICKYPLQLAELLKYTAQDHSDYRYVAAALAVMRNVTQQINERKRRLENIDKIAQWQASVLDWEGEDILDRSSELIYTGEMAWIYQPYGRNQQRVFFLFDHQMVLCKKDLIRRDILYYKGRIDMDKYEVIDIEDGRDDDFNVSMKNAFKLHNKETEEVHLFFAKKLEEKIRWLRAFREERKMVQEDEKIGFEISENQKRQAAMTVRKASKQKGVNSARSVPPSYPPPQDPLNQGQYLVPDGIAQSQVFEFTEPKRSQSPFWQNFSRLTPFKK
Take B1: the binding entry in experiment [1] was “binds”.

B2: collybistin, endogenous in HEK293T cells (protein, UniProt O43307 1-516)
chain: B1 chain with Y2T, D3L, G71E, I374V, V402I, A452V, S453P, Q477H
With B2, in experiment [2], the binding entry is recorded as “binds”.
